Assay [1] has as its target Focal adhesion kinase 1 (human (endogenous in HCT-116)) (UniProt Q05397). Put plainly: co-IP; anti-FAK IP from lysate of EGF-stimulated HCT-116 cells, Western blot for zyxin, nesprin-1 and desmoplakin; IgG control. In general terms: A western blot detects proteins with antibodies after separation by electrophoresis.
Assay [2] deals with Nesprin-1 (human (endogenous in HCT-116)) (UniProt Q8NF91). The experiment in a line: co-IP; reciprocal IP with polyclonal antibodies against zyxin or nesprin-1 from HCT-116 lysate (1500 µg total protein), Western blot for FAK; IgG control.
Assay [3] has as its target T1, Zyxin (human (endogenous in HCT-116)) (UniProt Q15942).
T1 sequence: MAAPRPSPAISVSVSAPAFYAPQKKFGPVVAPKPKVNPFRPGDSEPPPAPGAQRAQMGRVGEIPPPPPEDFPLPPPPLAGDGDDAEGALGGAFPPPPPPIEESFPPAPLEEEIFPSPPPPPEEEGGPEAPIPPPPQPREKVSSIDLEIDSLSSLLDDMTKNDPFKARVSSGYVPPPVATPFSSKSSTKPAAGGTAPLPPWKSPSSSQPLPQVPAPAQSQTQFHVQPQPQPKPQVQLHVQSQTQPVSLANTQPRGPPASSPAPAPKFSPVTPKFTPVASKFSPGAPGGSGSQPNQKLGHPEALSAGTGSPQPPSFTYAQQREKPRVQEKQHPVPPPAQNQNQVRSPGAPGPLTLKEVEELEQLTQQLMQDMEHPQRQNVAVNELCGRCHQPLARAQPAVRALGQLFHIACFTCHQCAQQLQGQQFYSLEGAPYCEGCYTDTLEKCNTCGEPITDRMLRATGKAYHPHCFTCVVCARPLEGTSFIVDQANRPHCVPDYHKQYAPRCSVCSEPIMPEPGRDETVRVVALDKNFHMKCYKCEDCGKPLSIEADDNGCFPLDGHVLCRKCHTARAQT
Described as above.

Chains of the proteins cited; added tags and fusions are not shown.
UniProt Q05397: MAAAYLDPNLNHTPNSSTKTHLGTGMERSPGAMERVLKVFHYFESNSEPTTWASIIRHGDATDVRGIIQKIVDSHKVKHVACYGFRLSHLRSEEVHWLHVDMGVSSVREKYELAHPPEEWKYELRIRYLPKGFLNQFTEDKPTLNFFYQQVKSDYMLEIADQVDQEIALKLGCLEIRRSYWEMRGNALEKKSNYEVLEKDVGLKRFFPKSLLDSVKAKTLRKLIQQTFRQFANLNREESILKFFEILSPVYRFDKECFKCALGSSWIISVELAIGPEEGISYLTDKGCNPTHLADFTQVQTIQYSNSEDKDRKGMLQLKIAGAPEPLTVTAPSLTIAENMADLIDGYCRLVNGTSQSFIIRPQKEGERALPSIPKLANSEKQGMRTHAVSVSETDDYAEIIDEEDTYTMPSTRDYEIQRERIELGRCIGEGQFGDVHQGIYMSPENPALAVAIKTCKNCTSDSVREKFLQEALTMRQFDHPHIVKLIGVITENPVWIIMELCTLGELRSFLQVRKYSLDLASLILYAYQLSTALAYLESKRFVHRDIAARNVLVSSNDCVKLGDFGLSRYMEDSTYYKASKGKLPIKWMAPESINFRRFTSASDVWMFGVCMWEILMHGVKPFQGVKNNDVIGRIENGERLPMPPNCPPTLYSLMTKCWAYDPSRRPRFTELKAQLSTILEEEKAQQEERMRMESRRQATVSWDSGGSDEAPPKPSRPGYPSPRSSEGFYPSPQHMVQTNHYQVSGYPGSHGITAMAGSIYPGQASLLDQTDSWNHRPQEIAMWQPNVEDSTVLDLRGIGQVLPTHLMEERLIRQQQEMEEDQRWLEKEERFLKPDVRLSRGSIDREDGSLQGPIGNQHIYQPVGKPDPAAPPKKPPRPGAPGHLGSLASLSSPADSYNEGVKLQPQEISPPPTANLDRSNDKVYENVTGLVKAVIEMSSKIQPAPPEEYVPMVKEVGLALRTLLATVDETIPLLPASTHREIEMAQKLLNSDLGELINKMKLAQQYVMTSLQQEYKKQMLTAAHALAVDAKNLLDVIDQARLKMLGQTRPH

The results in this text go back to article PMC6733923.

These are yes or no findings as the source states them, for the method shown. Binding seen in cells or lysates may run through a third protein. Some entries that bind do so weakly or less than the wild type.

In the case of Nesprin-1 (from UniProt Q8NF91 1-8797), the binding result in assay [1] is recorded as “binds”.

As for “Focal adhesion kinase 1 (from UniProt Q05397 1-1052)”, the binding result in assay [2] and in assay [3] was “binds” in each case.

For the substance “Desmoplakin (from UniProt P15924-1 1-2871)”, the binding entry in assay [1] is “binds”.
